PubChem BioAssay AID1053208, Peter MacCallum Cancer Centre, 2014
Here is a random part of about 17,000 deposited reagents. In the full data, 788 (4.7%) got an active call. 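Calls rest on z-score classes alone; an extra cut-off of viability at most 70% of control was not applied to them.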 Not all columns of the deposit are shown.

- Test: 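Genes whose silencing cuts survival of bone tumour cells only with doxorubicin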 (primary screen)
- System: mouse osteosarcoma cells, early-passage culture from an engineered mouse model of fibroblastic bone tumour
- Reagent: siRNA pool against mouse genes, 40 nM
- Time to read-out: about 120 h (48 h before drug, then 72 h with drug)
- Treatment: doxorubicin 100 nM for 72 h, roughly 30-40% inhibitory dose
- Measured: 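Viability read as ATP luminescence after 72 h of 100 nM doxorubicin or none, duplicate wells averaged, scaled to non-targeting siRNA, then expressed as robust z-scores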
- Scale: viability z-score with doxorubicin: higher = more viable cells under doxorubicin; viability z-score without drug: higher = more viable cells with knock-down alone
- Active means: 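Called active if knock-down leaves viability unchanged without drug (z within -2 to 2) but lowers it with doxorubicin (z at or under -2)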

Ginm1 (glycoprotein integral membrane 1) | combined z-score class: no change with or without drug; viability z-score with doxorubicin: -0.34; viability z-score without drug: 1.35; activity call: inactive
Chit1 (chitinase 1) | combined z-score class: no change with or without drug; viability z-score with doxorubicin: -1.91; viability z-score without drug: -1.52; activity call: inactive
Ddx50 (DExD box helicase 50) | combined z-score class: no change with or without drug; viability z-score with doxorubicin: -0.22; viability z-score without drug: -0.34; activity call: inactive
4930451E10Rik (RIKEN cDNA 4930451E10 gene) | combined z-score class: high cell count without drug only; viability z-score with doxorubicin: 0.79; viability z-score without drug: 2.53; activity call: inactive
Crygd (crystallin, gamma D) | combined z-score class: no change with or without drug; viability z-score with doxorubicin: -0.9; viability z-score without drug: 0.67; activity call: inactive
1810009N02Rik (RIKEN cDNA 1810009N02 gene) | combined z-score class: low cell count with doxorubicin only; viability z-score with doxorubicin: -3.6; viability z-score without drug: -0.17; activity call: active
Rmnd1 (required for meiotic nuclear division 1 homolog) | combined z-score class: no change with or without drug; viability z-score with doxorubicin: 0.34; viability z-score without drug: -0.17; activity call: inactive
Cpne1 (copine I) | combined z-score class: no change with or without drug; viability z-score with doxorubicin: -0.67; viability z-score without drug: -0.84; activity call: inactive
Jph4 (junctophilin 4) | combined z-score class: no change with or without drug; viability z-score with doxorubicin: 0.11; viability z-score without drug: -1.18; activity call: inactive
Il1bos (interleukin 1 beta, opposite strand) | combined z-score class: no change with or without drug; viability z-score with doxorubicin: 0.34; viability z-score without drug: 1.69; activity call: inactive
Tubb2b (tubulin, beta 2B class IIB) | combined z-score class: no change with or without drug; viability z-score with doxorubicin: -0.22; viability z-score without drug: 1.18; activity call: inactive
Mier2 (MIER family member 2) | combined z-score class: no change with or without drug; viability z-score with doxorubicin: -0.22; viability z-score without drug: 0.17; activity call: inactive

Part of the list above, set out differently:
Gene | combined z-score class | viability z-score with doxorubicin | viability z-score without drug | activity call
Ddx50 (DExD box helicase 50) | no change with or without drug | -0.22 | -0.34 | inactive
4930451E10Rik (RIKEN cDNA 4930451E10 gene) | high cell count without drug only | 0.79 | 2.53 | inactive
